Among all 390,000 compounds or so, about 820 (0.21%) were called active. Inconclusive results, whose numbers are uncertain, are shown with a selection of clear calls. Calls follow the shape of the dose curve; as a rule, active = well fitted inhibition curve with a large enough effect; inconclusive = small, poorly fitted or top-dose-only effect, or another doubt; inactive = no such curve, though single readings can be large or run the other way. Potencies of inconclusive entries are doubtful fits and often do not repeat.
What follows are compounds tested against Histone acetyltransferase KAT2A (Homo sapiens) (UniProt Q92830) (assay: qHTS Assay for Inhibitors of GCN5L2). Details: GCN5L2 HAT assay, ThioGlo1 CoA-SH fluorescence; activity change, negative = inhibition: at 58.9 µM (top of the series) unless noted.
In short: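 Compounds, pin-transferred from DMSO stocks, meet 20nM GCN5L2 for 15 min before the reaction begins with H3(1-25) peptide (75uM) and acetyl-CoA (70uM). Thiol-reactive ThioGlo1 reports CoA release over 20 min at room temperature.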
% is scaled to controls: 0 for no effect and ±100 for the full control effect; potency is read from the fitted curve at half-maximal effect.

Protein sequences, listed by entry. Tags and fused reporters are not part of them.
UniProt Q92830, whole entry, looked up: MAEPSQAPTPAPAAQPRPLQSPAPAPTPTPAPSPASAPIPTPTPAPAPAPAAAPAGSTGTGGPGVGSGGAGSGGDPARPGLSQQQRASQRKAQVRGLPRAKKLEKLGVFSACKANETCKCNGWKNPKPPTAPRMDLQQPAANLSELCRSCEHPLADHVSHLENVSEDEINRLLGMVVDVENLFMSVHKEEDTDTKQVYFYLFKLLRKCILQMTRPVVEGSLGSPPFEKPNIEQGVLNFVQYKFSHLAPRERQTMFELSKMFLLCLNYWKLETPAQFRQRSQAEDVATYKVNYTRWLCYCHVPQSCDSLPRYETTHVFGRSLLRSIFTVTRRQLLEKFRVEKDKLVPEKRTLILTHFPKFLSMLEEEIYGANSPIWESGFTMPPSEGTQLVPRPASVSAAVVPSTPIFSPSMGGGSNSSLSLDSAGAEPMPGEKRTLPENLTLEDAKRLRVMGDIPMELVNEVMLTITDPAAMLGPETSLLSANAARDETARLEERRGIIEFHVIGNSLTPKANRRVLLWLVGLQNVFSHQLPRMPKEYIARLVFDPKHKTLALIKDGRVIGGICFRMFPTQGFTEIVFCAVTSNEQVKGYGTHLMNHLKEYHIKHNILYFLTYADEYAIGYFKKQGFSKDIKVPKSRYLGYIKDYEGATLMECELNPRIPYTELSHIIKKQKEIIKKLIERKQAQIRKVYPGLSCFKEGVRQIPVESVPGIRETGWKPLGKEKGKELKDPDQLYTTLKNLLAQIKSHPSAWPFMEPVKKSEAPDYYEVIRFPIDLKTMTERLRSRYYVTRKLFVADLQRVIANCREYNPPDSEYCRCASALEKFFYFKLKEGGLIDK

| SMILES | activity change, negative = inhibition | Potency |
| --- | --- | --- |
| COc1cc(NC(=O)c2cc3ccccc3o2)ccc1NC(=O)c1ccco1 | inactive: -16.3% |  |
| COCCn1c(N)c(N(Cc2ccccc2)C(=O)CSCC(=O)Nc2ccc(OC)cc2)c(=O)[nH]c1=O | inactive: 0.721% |  |
| CC1(C)Cc2ccccc2/C(=C/C(=O)c2ccccc2)N1 |  | inconclusive: 0.631 µM [inhibitor, single point] |
| CCOC(=O)CC(Nc1nc(N2CCOCC2)nc(N2CCOCC2)n1)c1ccccc1Cl (centres undefined) |  | inconclusive: 7.08 µM [inhibitor, single point] |
| Cn1c(=O)c2c(ncn2CC(=O)N2CCCc3ccccc32)n(C)c1=O | inactive: -1.07% |  |
| COc1ccc(S(=O)(=O)N2CCOCC2)cc1NC(=O)c1cccc(-n2cccc2)c1 |  | inconclusive: 11.2 µM [inhibitor, partial curve] |
| C=CS(=O)(=O)c1sc(Cl)c(N2CCOCC2)c1[N+](=O)[O-] |  | inconclusive: 35.5 µM [inhibitor, single point] |
| Cc1nc(N)ncc1-c1ccc2c(c1)OCO2 |  | inconclusive: 0.631 µM [inhibitor, single point] |
| Cc1c(C(=O)Nc2ccccc2-c2ccccc2)cccc1[N+](=O)[O-] |  | inconclusive: 0.891 µM [inhibitor, single point] |
| O=C1/C(=C/c2ccccc2)NC(=S)N1C(c1ccccc1)c1ccccc1 | inactive: -2.57% |  |
| Cc1noc(NS(=O)(=O)c2ccc(N/C=C/C(=O)c3ccccc3)cc2)c1C |  | inconclusive: 0.794 µM [inhibitor, full curve] |
| CC1(c2ccc3ccccc3c2)NC(=O)N(CC(=O)N2CCN(Cc3ccc(C#N)cc3)CC2)C1=O (centres undefined) | inactive: -12.3% |  |
| Cn1cc(Cl)c(C(=O)NC2CCCC2)n1 |  | inconclusive: 0.126 µM [inhibitor, full curve, poor fit] |
| CN1C(=O)Cc2cc(S(=O)(=O)N3CCN(c4cccc(Cl)c4)CC3)ccc21 |  | inconclusive: 1 µM [inhibitor, single point] |
| CCOc1ccccc1Nc1cc(C)nc2nnnn12 |  | inconclusive: 39.8 µM [inhibitor, single point] |
| Cc1cc(SCc2ccc([N+](=O)[O-])cc2)nc(=O)[nH]1 |  | inconclusive: 39.8 µM [inhibitor, single point] |
| CCOc1ccccc1/C=c1\sc2nc(-c3ccco3)nn2c1=O |  | inconclusive: 39.8 µM [inhibitor, single point] |
| O=C(O)C(c1ccccc1)N1C(=O)/C(=C\c2ccc(-c3ccccc3Cl)o2)SC1=S (centres undefined) |  | inconclusive: 1.78 µM [inhibitor, full curve, poor fit] |
| COc1ccc(NC(=O)/C(C#N)=C\c2ccc(-c3cccc(C(=O)O)c3C)o2)cc1 | inactive: -6.69% |  |
| CCOC(=O)N1CCN(C(=O)COC(=O)c2ccccc2NCCO)CC1 |  | inconclusive: 39.8 µM [inhibitor, single point] |
| O=C(NC1CCCCC1)c1c2c(nc3ccccc13)CCC2 |  | inconclusive: 39.8 µM [inhibitor, single point] |
| Cc1cccc(-c2noc(-c3ccno3)n2)c1 |  | inconclusive: 10 µM [inhibitor, partial curve] |

| SMILES | activity change, negative = inhibition | Potency |
| --- | --- | --- |
| O=C(CCc1nc(CN2CCN(S(=O)(=O)c3ccc(Br)cc3)CC2)no1)N1CCCCC1 |  | inconclusive: 5.01 µM [inhibitor, single point] |
| COc1cc(Sc2ccc(C)cc2)c(OC)cc1N |  | inconclusive: 0.891 µM [inhibitor, partial curve, poor fit] |
| Cc1ccc2c(c1)N(CCC(=O)NC1CC1)C(=O)C(C)O2 (centres undefined) |  | inconclusive: 39.8 µM [inhibitor, single point] |
| COc1ccc2c(c1)c1c(c(=O)n(CCc3ccccc3)c(=O)n1Cc1cccc(Cl)c1)n2C |  | inconclusive: 3.16 µM [inhibitor, single point] |
| Cc1cccc(N2CCN(c3nc4nonc4nc3N3CCSCC3)CC2)n1 |  | inconclusive: 39.8 µM [inhibitor, single point] |
| O=C1NN=C(CSc2n[nH]c(=S)s2)CS1 |  | inconclusive: 39.8 µM [inhibitor, single point] |
| COc1ccc(NC(=O)c2c(NC(=O)CCC(=O)O)sc3c2CCCCC3)cc1 | inactive: -5.16% |  |
| O=C(CN1C(=O)NC2(CCCCCC2)C1=O)NCc1ccco1 |  | inconclusive: 5.01 µM [inhibitor, single point] |
| COc1ccc(NC(=O)NNC(=O)C(C)Oc2ccc(C(C)C)cc2)c(OC)c1 (centres undefined) |  | inconclusive: 0.501 µM [inhibitor, single point] |
| Cc1cc(C)nc(N/N=C/c2ccco2)n1 | inactive: -4.85% |  |
| Cc1cc(C)n(-c2nc3ccccc3nc2N2CCN(c3cccc(C(F)(F)F)c3)CC2)n1 |  | inconclusive: 39.8 µM [inhibitor, single point] |
| N#CCCn1c(=O)c(-c2ccccc2)nc2cnc(N3CCNCC3)nc21 |  | inconclusive: 31.6 µM [inhibitor, partial curve] |
| Cc1c(CC(=O)NCc2ccc(F)cc2)c(=O)oc2cc(O)c(Cl)cc12 |  | inconclusive: 28.2 µM [inhibitor, partial curve] |
| CC(=O)Nc1c(C)ccc(CNC(=O)COc2cc(C)ccc2C)c1C | inactive: 1.28% |  |
| CCCNC(=O)c1cn(CC)c2cc(N3CCN(C(=O)c4ccco4)CC3)c(F)cc2c1=O |  | inconclusive: 3.55 µM [inhibitor, partial curve] |
| CCOn1c(=O)c(-c2cccs2)[n+]([O-])c2ccccc21 | inactive: 1.96% |  |
| O=c1c(O)cccc2cc(O)c(O)c(O)c12 |  | inconclusive: 22.4 µM [inhibitor, partial curve] |
| CSc1ccc(C2Nc3cccc4cccc(c34)N2)cc1 | inactive: -20.5% |  |
| O=C(Nc1ccc(F)cc1)Nc1sccc1-c1nc2ccccc2s1 |  | inconclusive: 20 µM [inhibitor, single point] |
| Cc1sc(NC(=O)c2cc(-c3ccc(Cl)cc3)nc3ccccc23)c(C(N)=O)c1C |  | inconclusive: 0.708 µM [inhibitor, single point] |
| COCCNC(=O)Nc1ccc2nc(-c3ccco3)c(-c3ccco3)nc2c1 |  | active: 17.8 µM |
| COc1ccc2nc(NC(C)=O)sc2c1 |  | inconclusive: 39.8 µM [inhibitor, single point] |

Single records, as listed above.
COc1ccc(NC(=O)NNC(=O)C(C)Oc2ccc(C(C)C)cc2)c(OC)c1 (centres undefined) in the list: Potency: inconclusive: 0.501 µM [inhibitor, single point]
COc1ccc2nc(NC(C)=O)sc2c1 in the list: Potency: inconclusive: 39.8 µM [inhibitor, single point]
